# Test results from the supplement of paper PMC8728848.
# The other results are listed elsewhere or left out.
# B1: Gs78B-bfa-542-29-542 (Bacteroides fragilis) (protein)
# chain: SEDINRNPLLPTKEDEKMDGVIYGAYLPNLEKSVIPIGTASESTEPVNRYQIGVNLAGDAWAGYMSPRDNKFNGSKNFTNYFMYENWVNYVYSFMVTDVYSPWMQIKRISQDEGTRNDEIYALAQIIKIAALHRTTDMFGPIPYSQVGKGSFKVAYDSQESVYRSFLKELEEAVQTLDDYSNKSKEVLPAFDIVYNGDVNKWMRFANSLMLRLAIRVRFADAGLAKEYAEKAVKHPAGLINSKELAAQMGKGAGLQMKNPLKVINEEYNDTRMGATIYSYLAGYNDARAAVYFVKNNGFKAVRCGIAKSGDAYNGFTRPNVHEDDPLYWMKASEVCFLKAEGALAGFDMGGSAGDFYNAGIRMSFSENGLDNSSAETYLKDSTRKPANYTDTSNGELSANAPSSITIRWENGATEEEKLERIITQKYLAIFPNGQEAWTEWRRTGYPRQIVVAENKTNSAVLIGNGYDLGGVRRLPYPRTEYEQNGENLHNAISQYLGGVDNAATKVWWDKKSK
# Assays:
# Assay in all cases: glycan array binding signal (z-score within array); higher = stronger binding
# Details in all cases: glycan notation: IUPAC condensed, linker removed
# [1] = target: Fuc(a1-2)Gal
# In short: (§1)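 Glycan array data were curated from 3228 arrays in the Consortium for Functional Glycomics database and kept only where the protein sequence was available. Glycan names were converted to IUPAC-condensed notation, and columns mapping to the same glycan were averaged. The binding signal is a within-array Z-score, averaged across arrays of the same protein sequence at different concentrations or buffers and across linkers. Negative Z-scores can be read as non-binding.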
# [2] = target: Fuc(a1-2)Gal(b1-3)GalNAc
# In short: as §1
# [3] = target: Fuc(a1-2)Gal(b1-3)GalNAc(a1-3)[Fuc(a1-2)]Gal(b1-4)Glc
# In short: as §1
# [4] = target: Fuc(a1-2)Gal(b1-3)GalNAc(a1-3)[Fuc(a1-2)]Gal(b1-4)GlcNAc
# In short: as §1
# [5] = target: Fuc(a1-2)Gal(b1-3)GalNAc(b1-3)Gal
# In short: as §1
# [6] = target: Fuc(a1-2)Gal(b1-3)GalNAc(b1-3)Gal(a1-4)Gal(b1-4)Glc
# In short: as §1
# [7] = target: Fuc(a1-2)Gal(b1-3)GalNAc(b1-4)[Neu5Ac(a2-3)]Gal(b1-4)Glc
# In short: as §1
# [8] = target: Fuc(a1-2)Gal(b1-3)GlcNAc
# In short: as §1
# [9] = target: Fuc(a1-2)Gal(b1-3)GlcNAc(b1-2)Man(a1-3)[Fuc(a1-2)Gal(b1-3)GlcNAc(b1-2)Man(a1-6)]Man(b1-4)GlcNAc(b1-4)GlcNAc
# In short: as §1
# [10] = target: Fuc(a1-2)Gal(b1-3)GlcNAc(b1-2)Man(a1-3)[Fuc(a1-2)Gal(b1-3)GlcNAc(b1-2)Man(a1-6)]Man(b1-4)GlcNAc(b1-4)[Fuc(a1-6)]GlcNAc
# In short: as §1
# [11] = target: Fuc(a1-2)Gal(b1-3)GlcNAc(b1-3)Gal(b1-4)Glc
# In short: as §1
# [12] = target: Fuc(a1-2)Gal(b1-3)GlcNAc(b1-3)GalNAc
# In short: as §1
# [13] = target: Fuc(a1-2)Gal(b1-3)GlcNAc(b1-3)[Fuc(a1-2)Gal(b1-3)GlcNAc(b1-6)]GalNAc
# In short: as §1
# [14] = target: Fuc(a1-2)Gal(b1-3)GlcNAc(b1-3)[Gal(b1-4)GlcNAc(b1-6)]Gal(b1-4)Glc
# In short: as §1
# [15] = target: Fuc(a1-2)Gal(b1-3)GlcNAc(b1-3)[Neu5Ac(a2-6)Gal(b1-4)GlcNAc(b1-6)]Gal(b1-4)Glc
# In short: as §1
# [16] = target: Fuc(a1-2)Gal(b1-3)GlcNAc6S
# In short: as §1
# [17] = target: Fuc(a1-2)Gal(b1-3)[Fuc(a1-4)]GlcNAc
# In short: as §1
# [18] = target: Fuc(a1-2)Gal(b1-3)[Fuc(a1-4)]GlcNAc(b1-2)Man(a1-3)[Fuc(a1-2)Gal(b1-3)[Fuc(a1-4)]GlcNAc(b1-2)Man(a1-3)]Man(b1-4)GlcNAc(b1-4)GlcNAc
# In short: as §1
# [19] = target: Fuc(a1-2)Gal(b1-3)[Fuc(a1-4)]GlcNAc(b1-2)Man(a1-3)[Fuc(a1-2)Gal(b1-3)[Fuc(a1-4)]GlcNAc(b1-2)Man(a1-6)]Man(b1-4)GlcNAc(b1-4)[Fuc(a1-6)]GlcNAc(b1-4)[Fuc(a1-6)]GlcNAc
# In short: as §1
# [20] = target: Fuc(a1-2)Gal(b1-3)[Fuc(a1-4)]GlcNAc(b1-3)[Fuc(a1-3)[Gal(b1-4)]GlcNAc(b1-6)]Gal(b1-4)Glc
# In short: as §1
# [21] = target: Fuc(a1-2)Gal(b1-3)[Fuc(a1-4)]GlcNAc(b1-3)[Gal(b1-4)GlcNAc(b1-6)]Gal(b1-4)Glc
# In short: as §1
# [22] = target: Fuc(a1-2)Gal(b1-4)Glc
# In short: as §1
# [23] = target: Fuc(a1-2)Gal(b1-4)Glc6S
# In short: as §1
# [24] = target: Fuc(a1-2)Gal(b1-4)GlcNAc
# In short: as §1
# [25] = target: Fuc(a1-2)Gal(b1-4)GlcNAc(b1-2)Man
# In short: as §1
# [26] = target: Fuc(a1-2)Gal(b1-4)GlcNAc(b1-2)Man(a1-3)[Fuc(a1-2)Gal(b1-4)GlcNAc(b1-2)Man(a1-6)]Man(b1-4)GlcNAc(b1-4)GlcNAc
# In short: as §1
# [27] = target: Fuc(a1-2)Gal(b1-4)GlcNAc(b1-2)Man(a1-3)[Fuc(a1-2)Gal(b1-4)GlcNAc(b1-2)Man(a1-6)]Man(b1-4)GlcNAc(b1-4)[Fuc(a1-6)]GlcNAc
# In short: as §1
# [28] = target: Fuc(a1-2)Gal(b1-4)GlcNAc(b1-2)[Fuc(a1-2)Gal(b1-4)GlcNAc(b1-4)]Man(a1-3)[Fuc(a1-2)Gal(b1-4)GlcNAc(b1-2)Man(a1-6)]Man(b1-4)GlcNAc(b1-4)GlcNAc
# In short: as §1
# [29] = target: Fuc(a1-2)Gal(b1-4)GlcNAc(b1-3)Gal(b1-4)GlcNAc
# In short: as §1
# [30] = target: Fuc(a1-2)Gal(b1-4)GlcNAc(b1-3)Gal(b1-4)GlcNAc(b1-2)Man(a1-3)[Fuc(a1-2)Gal(b1-4)GlcNAc(b1-3)Gal(b1-4)GlcNAc(b1-2)Man(a1-6)]Man(b1-4)GlcNAc(b1-4)GlcNAc
# In short: as §1
# [31] = target: Fuc(a1-2)Gal(b1-4)GlcNAc(b1-3)Gal(b1-4)GlcNAc(b1-3)Gal(b1-4)GlcNAc
# In short: as §1
# [32] = target: Fuc(a1-2)Gal(b1-4)GlcNAc(b1-3)GalNAc
# In short: as §1
# [33] = target: Fuc(a1-2)Gal(b1-4)GlcNAc(b1-3)[Fuc(a1-2)Gal(b1-4)GlcNAc(b1-6)]GalNAc
# In short: as §1
# [34] = target: Fuc(a1-2)Gal(b1-4)GlcNAc(b1-3)[Fuc(a1-3)[Gal(b1-4)]GlcNAc(b1-6)]Gal(b1-4)Glc
# In short: as §1
# [35] = target: Fuc(a1-2)Gal(b1-4)GlcNAc(b1-6)GalNAc
# In short: as §1
# [36] = target: Fuc(a1-2)Gal(b1-4)GlcNAc6S
# In short: as §1
# [37] = target: Fuc(a1-2)Gal(b1-4)[Fuc(a1-3)]GlcNAc
# In short: as §1
# [38] = target: Fuc(a1-2)Gal(b1-4)[Fuc(a1-3)]GlcNAc(b1-2)Man(a1-3)[Fuc(a1-2)Gal(b1-4)[Fuc(a1-3)]GlcNAc(b1-2)Man(a1-6)]Man(b1-4)GlcNAc(b1-4)[Fuc(a1-6)]GlcNAc
# In short: as §1
# [39] = target: Fuc(a1-2)Gal(b1-4)[Fuc(a1-3)]GlcNAc(b1-2)[Fuc(a1-2)Gal(b1-4)[Fuc(a1-3)]GlcNAc(b1-4)]Man(a1-3)[Fuc(a1-2)Gal(b1-4)[Fuc(a1-3)]GlcNAc(b1-2)Man(a1-6)]Man(b1-4)GlcNAc(b1-4)GlcNAc
# In short: as §1
# [40] = target: Fuc(a1-2)Gal(b1-4)[Fuc(a1-3)]GlcNAc(b1-3)Gal(b1-4)[Fuc(a1-3)]GlcNAc
# In short: as §1
# [41] = target: Fuc(a1-2)Gal(b1-4)[Fuc(a1-3)]GlcNAc(b1-3)Gal(b1-4)[Fuc(a1-3)]GlcNAc(b1-3)Gal(b1-4)[Fuc(a1-3)]GlcNAc
# In short: as §1
# [42] = target: Fuc(a1-2)Gal(b1-4)[Fuc(a1-3)]GlcNAc(b1-3)GalNAc
# In short: as §1
# [43] = target: Fuc(a1-2)Gal(b1-4)[Fuc(a1-3)]GlcNAc(b1-3)[Neu5Ac(a2-6)Gal(b1-4)GlcNAc(b1-6)]Gal(b1-4)Glc
# In short: as §1
# [44] = target: Fuc(a1-2)Gal3S(b1-4)GlcNAc
# In short: as §1
# [45] = target: Fuc(a1-2)Gal6S(b1-3)GlcNAc
# In short: as §1
binder,measurement,setting,value
B1,glycan array binding signal (z-score),[1],-0.615
same,glycan array binding signal (z-score),[2],-0.638
same,glycan array binding signal (z-score),[3],0.024
same,glycan array binding signal (z-score),[4],-0.825
same,glycan array binding signal (z-score),[5],-0.042
same,glycan array binding signal (z-score),[6],-0.777
same,glycan array binding signal (z-score),[7],-0.594
same,glycan array binding signal (z-score),[8],-0.804
same,glycan array binding signal (z-score),[9],1.64
same,glycan array binding signal (z-score),[10],2.47
same,glycan array binding signal (z-score),[11],-0.826
same,glycan array binding signal (z-score),[12],-0.318
same,glycan array binding signal (z-score),[13],0.287
same,glycan array binding signal (z-score),[14],0.745
same,glycan array binding signal (z-score),[15],-0.143
same,glycan array binding signal (z-score),[16],-0.658
same,glycan array binding signal (z-score),[17],-0.801
same,glycan array binding signal (z-score),[18],0.574
same,glycan array binding signal (z-score),[19],-0.521
same,glycan array binding signal (z-score),[20],0.149
same,glycan array binding signal (z-score),[21],-0.741
same,glycan array binding signal (z-score),[22],-0.615
same,glycan array binding signal (z-score),[23],-0.068
same,glycan array binding signal (z-score),[24],-0.806
same,glycan array binding signal (z-score),[25],-0.063
same,glycan array binding signal (z-score),[26],0.583
same,glycan array binding signal (z-score),[27],-0.407
same,glycan array binding signal (z-score),[28],0.289
same,glycan array binding signal (z-score),[29],-0.851
same,glycan array binding signal (z-score),[30],0.637
same,glycan array binding signal (z-score),[31],-0.829
same,glycan array binding signal (z-score),[32],0.729
same,glycan array binding signal (z-score),[33],0.585
same,glycan array binding signal (z-score),[34],-0.817
same,glycan array binding signal (z-score),[35],1.29
same,glycan array binding signal (z-score),[36],-0.827
same,glycan array binding signal (z-score),[37],-0.758
same,glycan array binding signal (z-score),[38],-0.529
same,glycan array binding signal (z-score),[39],1.07
same,glycan array binding signal (z-score),[40],-0.816
same,glycan array binding signal (z-score),[41],-0.732
same,glycan array binding signal (z-score),[42],1.23
same,glycan array binding signal (z-score),[43],-0.619
same,glycan array binding signal (z-score),[44],-0.608
same,glycan array binding signal (z-score),[45],-0.827

# 2 entries from above, bar-delimited:
binder | measurement | setting | value
B1 | glycan array binding signal (z-score) | [28] | 0.289
same | glycan array binding signal (z-score) | [29] | -0.851
